Construct, isoform or probe ends are uncertain for at least one entry. At least one verdict rests on a figure or table, not on a statement of the authors. Tags and fusion partners may be left off the protein sequences shown.
Target: T1, MdZF32 (Malus domestica) (UniProt A0A540LDV7)
T1 sequence (looked up, limits assumed): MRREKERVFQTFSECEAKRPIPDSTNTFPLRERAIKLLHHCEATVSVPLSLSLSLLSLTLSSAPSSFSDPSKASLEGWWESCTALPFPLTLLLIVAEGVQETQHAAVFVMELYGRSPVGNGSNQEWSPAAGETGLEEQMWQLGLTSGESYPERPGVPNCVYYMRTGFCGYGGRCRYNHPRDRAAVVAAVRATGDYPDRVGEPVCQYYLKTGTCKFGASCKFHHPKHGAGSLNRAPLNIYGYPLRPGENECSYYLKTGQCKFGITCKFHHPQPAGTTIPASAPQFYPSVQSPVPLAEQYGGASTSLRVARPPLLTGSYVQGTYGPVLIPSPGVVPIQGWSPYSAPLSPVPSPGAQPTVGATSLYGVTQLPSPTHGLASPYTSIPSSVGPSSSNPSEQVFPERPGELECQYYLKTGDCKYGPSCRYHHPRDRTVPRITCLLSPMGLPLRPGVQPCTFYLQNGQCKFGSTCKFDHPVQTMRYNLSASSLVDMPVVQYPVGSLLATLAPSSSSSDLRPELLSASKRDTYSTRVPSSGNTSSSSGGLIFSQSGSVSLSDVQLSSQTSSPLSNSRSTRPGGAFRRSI
Experiment: EMSA
Conditions: Light Shift Chemiluminescence EMSA Kit (Beyotime GS009); 3'-biotin dsDNA probes; cold probe at 100x and 200x; pH and temperature not stated; recombinant …; protein details: His (pET-30a+); label: 3' biotin

Q: Does “TCAACGTTGAAAAAAAGAAGTACTATTACCATAAACTAAA (double strand) [MdACO1-P1 probe]” bind?
A: binds

Reference: paper PMC11975395
